Article PMC8384837
This is one part of the list.

These sequences were tested against T1, PUM1 PUF domain R6-SWD R7-NPG N1043S + Y1044W + Q1047D + S1079N + N1080P + E1083G (Homo sapiens) (UniProt Q14671). Details: yeast three-hybrid, YBZ-1, SC-Leu-His + 0.5 mM 3-AT, 4 days.
T1 sequence: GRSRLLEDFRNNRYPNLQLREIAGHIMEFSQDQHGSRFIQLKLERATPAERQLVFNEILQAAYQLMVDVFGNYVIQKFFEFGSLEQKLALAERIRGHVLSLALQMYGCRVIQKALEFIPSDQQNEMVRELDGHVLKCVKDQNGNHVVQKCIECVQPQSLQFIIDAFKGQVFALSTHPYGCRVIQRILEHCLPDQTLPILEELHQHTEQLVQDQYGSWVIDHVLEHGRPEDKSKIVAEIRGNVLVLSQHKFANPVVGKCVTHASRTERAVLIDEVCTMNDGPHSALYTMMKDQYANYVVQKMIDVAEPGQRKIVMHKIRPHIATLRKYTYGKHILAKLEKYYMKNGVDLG

| Sequence | binding signal (log2 enrichment (interaction score)) |
| --- | --- |
| GGCUAGAACUAGUGGAUCCCCCGGCGCCCGGCGGCUCGAGCCCGGGUAAGUUCAGACAGUCUGCAUGCCGCCGGGCGCCAUGCCUGCAGGUCGACUCUAGAAAACAUG | -1.34 |
| GGCUAGAACUAGUGGAUCCCCCGGCGCCCGGCGGCUCGAGCCCGGGUAAGUGGUAGCAGUCUGCAUGCCGCCGGGCGCCAUGCCUGCAGGUCGACUCUAGAAAACAUG | -0.87 |
| GGCUAGAACUAGUGGAUCCCCCGGCGCCCGGCGGCUCGAGCCCGGGUAAGAAUAAGACGUCUGCAUGCCGCCGGGCGCCAUGCCUGCAGGUCGACUCUAGAAAACAUG | -1.45 |
| GGCUAGAACUAGUGGAUCCCCCGGCGCCCGGCGGCUCGAGCCCGGGUAAGGUUAUUUAGUCUGCAUGCCGCCGGGCGCCAUGCCUGCAGGUCGACUCUAGAAAACAUG | -0.59 |
| GGCUAGAACUAGUGGAUCCCCCGGCGCCCGGCGGCUCGAGCCCGGGUAAGUUAGAUUCGUCUGCAUGCCGCCGGGCGCCAUGCCUGCAGGUCGACUCUAGAAAACAUG | -1.35 |
| GGCUAGAACUAGUGGAUCCCCCGGCGCCCGGCGGCUCGAGCCCGGGUAAGUCGAAGCUGUCUGCAUGCCGCCGGGCGCCAUGCCUGCAGGUCGACUCUAGAAAACAUG | -1.05 |
| GGCUAGAACUAGUGGAUCCCCCGGCGCCCGGCGGCUCGAGCCCGGGUAAGUCAUAAGCGUCUGCAUGCCGCCGGGCGCCAUGCCUGCAGGUCGACUCUAGAAAACAUG | -1.35 |
| GGCUAGAACUAGUGGAUCCCCCGGCGCCCGGCGGCUCGAGCCCGGGUAAGUGGAGCACGUCUGCAUGCCGCCGGGCGCCAUGCCUGCAGGUCGACUCUAGAAAACAUG | -1.56 |
| GGCUAGAACUAGUGGAUCCCCCGGCGCCCGGCGGCUCGAGCCCGGGUAAGAUGAUAUCGUCUGCAUGCCGCCGGGCGCCAUGCCUGCAGGUCGACUCUAGAAAACAUG | -1.36 |
| GGCUAGAACUAGUGGAUCCCCCGGCGCCCGGCGGCUCGAGCCCGGGUAAGAUUAAAUCGUCUGCAUGCCGCCGGGCGCCAUGCCUGCAGGUCGACUCUAGAAAACAUG | -1.45 |
| GGCUAGAACUAGUGGAUCCCCCGGCGCCCGGCGGCUCGAGCCCGGGUAAGUUAACUAAGUCUGCAUGCCGCCGGGCGCCAUGCCUGCAGGUCGACUCUAGAAAACAUG | -0.77 |
| GGCUAGAACUAGUGGAUCCCCCGGCGCCCGGCGGCUCGAGCCCGGGUAAGGUAAAACAGUCUGCAUGCCGCCGGGCGCCAUGCCUGCAGGUCGACUCUAGAAAACAUG | -0.57 |
| GGCUAGAACUAGUGGAUCCCCCGGCGCCCGGCGGCUCGAGCCCGGGUAAGUGGCCACUGUCUGCAUGCCGCCGGGCGCCAUGCCUGCAGGUCGACUCUAGAAAACAUG | -0.74 |
| GGCUAGAACUAGUGGAUCCCCCGGCGCCCGGCGGCUCGAGCCCGGGUAAGAUGUUAAUGUCUGCAUGCCGCCGGGCGCCAUGCCUGCAGGUCGACUCUAGAAAACAUG | -1.66 |
| GGCUAGAACUAGUGGAUCCCCCGGCGCCCGGCGGCUCGAGCCCGGGUAAGUCGGAUUGGUCUGCAUGCCGCCGGGCGCCAUGCCUGCAGGUCGACUCUAGAAAACAUG | -0.32 |
| GGCUAGAACUAGUGGAUCCCCCGGCGCCCGGCGGCUCGAGCCCGGGUAAGGUCAAAAUGUCUGCAUGCCGCCGGGCGCCAUGCCUGCAGGUCGACUCUAGAAAACAUG | -1.63 |
| GGCUAGAACUAGUGGAUCCCCCGGCGCCCGGCGGCUCGAGCCCGGGUAAGUGGUCGAAGUCUGCAUGCCGCCGGGCGCCAUGCCUGCAGGUCGACUCUAGAAAACAUG | -1.31 |
| GGCUAGAACUAGUGGAUCCCCCGGCGCCCGGCGGCUCGAGCCCGGGUAAGUUCAAUGAGUCUGCAUGCCGCCGGGCGCCAUGCCUGCAGGUCGACUCUAGAAAACAUG | -1.28 |
| GGCUAGAACUAGUGGAUCCCCCGGCGCCCGGCGGCUCGAGCCCGGGUAAGUUGGAAGAGUCUGCAUGCCGCCGGGCGCCAUGCCUGCAGGUCGACUCUAGAAAACAUG | -1.37 |
| GGCUAGAACUAGUGGAUCCCCCGGCGCCCGGCGGCUCGAGCCCGGGUAAGUGGAUGAAGUCUGCAUGCCGCCGGGCGCCAUGCCUGCAGGUCGACUCUAGAAAACAUG | -0.48 |
| GGCUAGAACUAGUGGAUCCCCCGGCGCCCGGCGGCUCGAGCCCGGGUAAGGCUUAACGGUCUGCAUGCCGCCGGGCGCCAUGCCUGCAGGUCGACUCUAGAAAACAUG | -0.47 |
| GGCUAGAACUAGUGGAUCCCCCGGCGCCCGGCGGCUCGAGCCCGGGUAAGUGUCACUCGUCUGCAUGCCGCCGGGCGCCAUGCCUGCAGGUCGACUCUAGAAAACAUG | -0.64 |
| GGCUAGAACUAGUGGAUCCCCCGGCGCCCGGCGGCUCGAGCCCGGGUAAGUUUUCUAAGUCUGCAUGCCGCCGGGCGCCAUGCCUGCAGGUCGACUCUAGAAAACAUG | -1.87 |
| GGCUAGAACUAGUGGAUCCCCCGGCGCCCGGCGGCUCGAGCCCGGGUAAGUUGAUAAGGUCUGCAUGCCGCCGGGCGCCAUGCCUGCAGGUCGACUCUAGAAAACAUG | -1.88 |

Looked up one by one from above, 2 records:

| Sequence | binding signal (log2 enrichment (interaction score)) |
| --- | --- |
| GGCUAGAACUAGUGGAUCCCCCGGCGCCCGGCGGCUCGAGCCCGGGUAAGGCUUAACGGUCUGCAUGCCGCCGGGCGCCAUGCCUGCAGGUCGACUCUAGAAAACAUG | -0.47 |
| GGCUAGAACUAGUGGAUCCCCCGGCGCCCGGCGGCUCGAGCCCGGGUAAGAUGAUAUCGUCUGCAUGCCGCCGGGCGCCAUGCCUGCAGGUCGACUCUAGAAAACAUG | -1.36 |
